Common to all, as to settings: yeast three-hybrid, YBZ-1, SC-Leu-His + 0.5 mM 3-AT, 4 days
Assay [1] addresses T1, PUM1 PUF domain R2-AWD N899A + Y900W + Q903D (UniProt Q14671).
T1 sequence: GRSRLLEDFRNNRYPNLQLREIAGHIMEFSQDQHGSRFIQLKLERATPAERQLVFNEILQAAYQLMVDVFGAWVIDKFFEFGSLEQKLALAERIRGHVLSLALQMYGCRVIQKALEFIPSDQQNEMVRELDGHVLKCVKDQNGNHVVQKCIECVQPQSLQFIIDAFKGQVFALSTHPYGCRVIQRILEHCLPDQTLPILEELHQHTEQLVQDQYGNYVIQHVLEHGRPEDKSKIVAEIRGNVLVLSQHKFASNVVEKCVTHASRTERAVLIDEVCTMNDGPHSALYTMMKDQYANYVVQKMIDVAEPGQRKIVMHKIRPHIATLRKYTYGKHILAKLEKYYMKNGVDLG

In assay [2] the target is T2, PUM1 PUF domain R2-AWS N899A + Y900W + Q903S (UniProt Q14671).
T2 sequence: T1 sequence with D76S

Assay [3] concerns the target T3, PUM1 PUF domain R2-AWW N899A + Y900W + Q903W (UniProt Q14671).
T3 sequence: T1 sequence with D76W

The target in assay [4] is T4, PUM1 PUF domain R2-AYW N899A + Q903W (UniProt Q14671).
T4 sequence: T1 sequence with W73Y, D76W

Assay [5] has as its target T5, PUM1 PUF domain R2-CWP N899C + Y900W + Q903P (UniProt Q14671).
T5 sequence: T1 sequence with A72C, D76P

Assay [6] has as its target T6, PUM1 PUF domain R2-DWC N899D + Y900W + Q903C (UniProt Q14671).
T6 sequence: T1 sequence with A72D, D76C

Assay [7] addresses T7, PUM1 PUF domain R2-DWI N899D + Y900W + Q903I (UniProt Q14671).
T7 sequence: T1 sequence with A72D, D76I

In assay [8] the target is T8, PUM1 PUF domain R2-DWL N899D + Y900W + Q903L (UniProt Q14671).
T8 sequence: T1 sequence with A72D, D76L

For assay [9], the target named is T9, PUM1 PUF domain R2-EHL N899E + Y900H + Q903L (UniProt Q14671).
T9 sequence: T1 sequence with A72E, W73H, D76L

Assay [10] has as its target T10, PUM1 PUF domain R2-EWA N899E + Y900W + Q903A (UniProt Q14671).
T10 sequence: T1 sequence with A72E, D76A

The target in assay [11] is T11, PUM1 PUF domain R2-EWL N899E + Y900W + Q903L (UniProt Q14671).
T11 sequence: T1 sequence with A72E, D76L

Assay [12] addresses T12, PUM1 PUF domain R2-EWS N899E + Y900W + Q903S (UniProt Q14671).
T12 sequence: T1 sequence with A72E, D76S

Assay [13] deals with T13, PUM1 PUF domain R2-GWF N899G + Y900W + Q903F (UniProt Q14671).
T13 sequence: T1 sequence with A72G, D76F

For assay [14], the target named is T14, PUM1 PUF domain R2-IVF N899I + Y900V + Q903F (Homo sapiens) (UniProt Q14671).
T14 sequence: T1 sequence with A72I, W73V, D76F

Assay [15] addresses T15, PUM1 PUF domain R3-FRR C935F + Q939R (Homo sapiens) (UniProt Q14671).
T15 sequence: T1 sequence with A72N, W73Y, D76Q, C108F, Q112R

Assay [16] addresses T16, PUM1 PUF domain R3-GHP C935G + R936H + Q939P (Homo sapiens) (UniProt Q14671).
T16 sequence: T1 sequence with A72N, W73Y, D76Q, C108G, R109H, Q112P

Assay [17] has as its target T17, PUM1 PUF domain R3-IFL C935I + R936F + Q939L (Homo sapiens) (UniProt Q14671).
T17 sequence: T1 sequence with A72N, W73Y, D76Q, C108I, R109F, Q112L

In assay [18] the target is T18, PUM1 PUF domain R3-KPS C935K + R936P + Q939S (Homo sapiens) (UniProt Q14671).
T18 sequence: T1 sequence with A72N, W73Y, D76Q, C108K, R109P, Q112S

The target in assay [19] is T19, PUM1 PUF domain R3-RCS C935R + R936C + Q939S (Homo sapiens) (UniProt Q14671).
T19 sequence: T1 sequence with A72N, W73Y, D76Q, C108R, R109C, Q112S

Assay [20] deals with T20, PUM1 PUF domain R3-YWF C935Y + R936W + Q939F (Homo sapiens) (UniProt Q14671).
T20 sequence: T1 sequence with A72N, W73Y, D76Q, C108Y, R109W, Q112F

Substitutions are numbered along the chain they refer to. This is one part of the list. For some assays here: At the low end of the ranking, values are background and their order means little.

Turning to “GGCUAGAACUAGUGGAUCCCCCGGCGCCCGGCGGCUCGAGCCCGGGUAAGUGUAAAUAGUCUGCAUGCCGCCGGGCGCCAUGCCUGCAGGUCGACUCUAGAAAACAUG”, the binding signal (log2 enrichment (interaction score)) in [1] is less than -6.16; in [2] it was less than -6.01; in assay [3], less than -7.84; in assay [4], less than -7.16; in assay [5], less than -7.18; in assay [6], less than -6.89. In addition, the binding signal (log2 enrichment (interaction score)) in assay [7] is less than -6.8; in assay [8] it was less than -8.24; in [9], less than -5.45; in [10], less than -6.95; in [11], less than -6.87; in assay [12], less than -8.07. The binding signal (log2 enrichment (interaction score)) in assay [13] was less than -7.92; in assay [14] it was less than -5.77; in assay [15], -1.57; in assay [16], 1.22; in assay [17], 1.4; in assay [18], 0.41. Moreover, the figures for the binding signal (log2 enrichment (interaction score)) in assay [19] and in assay [20] were 0.37 and 0.74, respectively.

Source of the values: article PMC8384837.
